The values below come from PubChem BioAssay AID493014 (National Center for Advancing Translational Sciences (NCATS), 2011).

Structures are written as SMILES. The list shows a part of the results. Shown are side measurements of this screen, not its main read-out; they come without a call. Most of these compounds were active or inconclusive in the main read-out, so they are no random draw. The note in brackets gives the kind of curve behind each potency; many fits are weak.

The nature of this assay: qHTS Assay to Find Inhibitors of Chronic Active B-Cell Receptor Signaling. The conditions noted are these: ABC-DLBCL IkBa-CBG/CBR reporter, luminescence ratio (green luciferase fused to IkBa over red control in TMD8 lymphoma cells), 4 h. An outline of the steps:
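Compounds up to 46 uM were incubated four hours with TMD8 cells whose green CBG68 luciferase is fused to IkappaBalpha; red CBR luminescence normalised the signal, and concentration-effect curves were fitted to fusion, red and ratio data.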
A general note: qHTS replaces the single test concentration by a dilution series.

[1] abbreviates: measured here: CBR red luminescence, cell number.
Where [2] appears, read: measured here: IkBa-CBG green luminescence.

Regarding `Cc1cc(Nc2cccc(Cl)c2)nc(-c2ccccc2O)n1`, the AC50 (usually the concentration at which the activity in the assay is half-maximal) under setting [1] is 35.5 µM [falling, single point].

Consider `CCc1ccc(C(C(=O)NC2CCCCC2)N(C(=O)c2csnn2)C2CC2)cc1` (stereo not drawn), for which the AC50 under setting [1] is 2.51 µM [rising, partial curve, poor fit].

`Oc1ccc(C=Nc2ccc3ncccc3c2)c(O)c1`: the AC50 runs as follows: under setting [1], 2 µM [falling, full curve, poor fit]; under setting [2], 15.8 µM [falling, single point].

With `NC(=O)c1cccc2c3c([nH]c12)CCCC3`, under setting [1], the AC50 was 5.62 µM [rising, partial curve].

`O=C(O)c1cc(N/N=C/c2cccs2)ccc1Cl`: the AC50 under setting [1] is 2 µM [falling, full curve, poor fit].

As for `COc1ccc(NC(=O)CC2CCCCC2)cc1OC`, the AC50 under setting [1] was 1.58 µM [rising, partial curve, poor fit].

As for `CCn1c(SCc2ccc(C(=O)Nc3nccs3)cc2)nnc1-c1ccc(NC(C)=O)cc1`, the AC50 under setting [1] is 0.316 µM [falling, full curve].

In the case of `N#CC1(C#N)C2=C(CCCC2)NC(c2ccccc2)C1(C#N)C#N` (stereo not drawn), under setting [1], the AC50 was 12.6 µM [falling, partial curve, poor fit].

Consider `O=C(NC1CCCCC1)C(c1ccco1)N(CCc1ccccc1)C(=O)C(F)(F)F` (stereo not drawn), for which, under setting [1], the AC50 is 23.1 µM [falling, single point].

On to `Cc1cc(C(=O)CN2C(=O)C(=O)N(CC(C)C)C2=O)c(C)n1-c1ccccc1F`, for which the AC50 under setting [1] is 0.708 µM [falling, partial curve, poor fit].

In the case of `NC1(C#Cc2ccc3c(=O)c4ccccc4sc3c2)CCCCC1`, the AC50 under setting [1] was 25.9 µM [falling, partial curve, poor fit].

For the compound `O=C(COc1ccc(Cl)cc1)NCCC1=CCCCC1`, under setting [1], the AC50 is 12.6 µM [rising, partial curve, poor fit].

In the case of `COc1ccc(C)cc1NC(=O)c1nnn(Cc2cccc(F)c2)c1N`, under setting [1], the AC50 is 18.4 µM [rising, single point].

`COc1cc(/C=N/NC(=O)c2ccc(=O)[nH]n2)ccc1O`: the AC50 under setting [1] was 29.1 µM [falling, single point].

On to `Cc1c(NC(=O)c2cc(S(=O)(=O)N3CCCCC3)ccc2Cl)c(=O)n(-c2ccccc2)n1C`, for which, under setting [1], the AC50 was 6.51 µM [rising, partial curve, poor fit].

On to `O=c1[nH]c2cc3c(cc2cc1CN(Cc1cccnc1)C(=S)NCc1ccco1)OCCO3`, for which the AC50 under setting [1] is 6.31 µM [falling, partial curve, poor fit].

Take `COc1ccccc1-c1nc(C(N)=O)c2[nH]c(=O)n(-c3cccc(C)c3)c2n1`: the AC50 under setting [1] was 35.5 µM [falling, single point].

In the case of `O=C(O)c1ccc(N/N=C/c2ccnc3ccccc23)cc1`, the concentration at half-maximal activity (AC50) under setting [1] was 0.00447 µM [falling, full curve, poor fit].

`COC(=O)c1cc(NS(=O)(=O)c2ccc3c(c2)CCC(=O)N3)cc(C(=O)OC)c1`: the AC50 under setting [1] is 10.3 µM [rising, partial curve, poor fit].

As to `CCn1c(/C=C/c2ccccc2Cl)nc2ccccc2c1=O`, the AC50 under setting [1] is 35.5 µM [falling, single point].

Consider `COc1cccc(OC)c1OCCN1CCN(C(c2ccccc2)c2ccccc2)CC1`, for which the AC50 under setting [1] is 35.5 µM [falling, single point].

Turning to `CCN1CCN(CCOCCOc2ccccc2)CC1`, the AC50 under setting [1] is 0.447 µM [rising, full curve, poor fit].

In the case of `CSc1ccccc1NC(=O)Nc1ccc(Cl)cc1`, the AC50 under setting [1] was 9.2 µM [falling, partial curve, poor fit].

Turning to `CN(C)c1ccc(/C=C/c2nc3ccccc3s2)cc1`, the AC50 under setting [1] was 0.355 µM [falling, full curve, poor fit].

Turning to `COc1ccc(C(=O)Oc2ccc(C(C)=O)cc2)c(OC)c1`, the AC50 under setting [1] was 1.26 µM [rising, full curve, poor fit].

Turning to `O=C(c1cccc(F)c1)N1CCc2ccccc21`, under setting [1], the AC50 was 29.1 µM [rising, single point].

As to `CCc1cc(=O)oc2cc(OCC=C(C)C)ccc12`, the AC50 under setting [1] was 11.2 µM [rising, partial curve, poor fit].

`O=C([O-])c1ccccc1-[n+]1c(-c2ccccc2)cc(-c2ccccc2)cc1-c1ccccc1`: the AC50 under setting [1] is 5.8 µM [rising, single point].

Consider `Brc1ccc(-c2csc(/N=C/N3CCOCC3)n2)cc1`, for which the AC50 under setting [1] was 1.64 µM [rising, full curve].

On to `Cc1cccc(CC(C)NC(=O)c2oc3c(F)cccc3c2C)n1` (stereo not drawn), for which, under setting [1], the AC50 was 7.94 µM [falling, partial curve, poor fit].

`CC(C)C[C@@H](CO)N1CCN(Cc2ccc(O)cc2)CCC1=O`: the AC50 under setting [1] is 3.55 µM [rising, full curve, poor fit].

Consider `CC1(C)C=Cc2c(c3c(c4c(=O)c(-c5ccc(O)cc5)coc24)OC(C)(C)CC3)O1`, for which the AC50 under setting [1] is 1.12 µM [falling, full curve].

With `Fc1ccc(-n2ncc3c(NCCCn4ccnc4)ncnc32)cc1`, the AC50 under setting [1] was 5.62 µM [falling, full curve].

As to `COc1cc(-c2cc(C(=O)N3CCCCCC3)c3ccccc3n2)cc(OC)c1OC`, the AC50 under setting [1] was 16.4 µM [falling, partial curve].

Regarding `O=C(/C=C/c1cccc([N+](=O)[O-])c1)NC(=S)Nc1ccccc1C(=O)O`, the AC50 reads like this: under setting [1], 11.2 µM [falling, partial curve]; under setting [2], 22.4 µM [rising, partial curve, poor fit].

Turning to `CCn1c(C)nc2cc(C(=O)N=Nc3c(O)[nH]c4c(C)cc(C)cc34)ccc21`, the AC50 is, setting by setting: under setting [1], 13 µM [rising, partial curve, poor fit]; under setting [2], 0.58 µM [falling, partial curve, poor fit].

Regarding `O=C(N1CCOCC1)C1(c2ccc(Cl)cc2)CCCC1`, the AC50 under setting [1] is 29.1 µM [rising, single point].

For `Cc1ccc(-n2c(N)c(C(=O)NCc3cccnc3)sc2=S)cc1`, the AC50 under setting [1] is 35.5 µM [rising, single point].

For the compound `O=c1cc(C(F)(F)F)[nH]c2ccc(C(F)(F)F)cc12`, the AC50 under setting [1] is 5.01 µM [falling, full curve].

`N#CCc1cc2ccc3cccc4ccc(c1)c2c34`: under setting [1], the AC50 was 35.5 µM [rising, partial curve, poor fit].
